Hit rate of the full screen: of about 360,000 compounds, about 7,500 (2.1%) were called active. The inconclusive results got no clear call from the source; some entries with a clear call stand among them for comparison. Calls come from the whole dose curve; as a rule, active = well fitted inhibition curve with a large enough effect; inconclusive = small, poorly fitted or top-dose-only effect, or effect the other way; inactive = flat fitted curve, though single readings scatter. Where the call is inconclusive, the potency comes from a doubtful curve fit.
Test: Nrf2 qHTS screen for inhibitors; note: nearly all actives have a fitted effect of over 60% in size
Conditions: A549 ARE-Fluc reporter, luciferase luminescence, 18-24 h; series mostly up to 46 µM
In short: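 In this cell-based qHTS, ARE-driven firefly luciferase in A549 cells reports Nrf2 activity; the luminescent signal after BugLite lysis is the measured value, with a prior CellTiter-Fluor read for cell health.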
Potency is the fitted concentration of half-maximal effect.

Row | Compound | Potency
1 | O=c1[nH]c(SCc2ccc(Cl)cc2)nc2ccsc12 | inconclusive: 4.11 µM [activator, single point]
2 | CN(C)/C=C/C(=O)c1cnc(-c2ccc(Cl)cc2)s1 | inconclusive: 10.3 µM [activator, partial curve]
3 | Cc1ccc(SC[C@H](CC(C)C)N2CCN(C)CCC2=O)cc1 | inconclusive: 23.1 µM [activator, single point]
4 | COc1cc(C(=O)Nc2cc(Cl)ccc2C)c(-n2cnnn2)cc1OC | inconclusive: 0.231 µM [falling, partial curve, poor fit]
5 | Cc1cc(NC(=O)COc2ccc(Cl)cc2Cl)n(-c2ccccc2)n1 | inconclusive: 29.1 µM [falling, single point]
6 | COc1ccc(S(=O)(=O)Nc2ccc(F)cc2)c(C)c1C | inconclusive: 25.9 µM [falling, single point]
7 | COc1ccc(NC(=O)c2ccc3nc[nH]c3c2)cc1 | inconclusive: 5.8 µM [activator, partial curve]
8 | O=C(Nc1c(O)c2ccccc2oc1=O)c1cccc(F)c1 | inconclusive: 9.2 µM [activator, partial curve, poor fit]
9 | COc1ccc(/C(C)=N/Nc2nc3ccccc3nc2C)cc1 | inconclusive: 29.1 µM [activator, single point]
10 | CC(Oc1ccc(Cl)cc1Cl)C(=O)Nc1ccncc1 (centres undefined) | inconclusive: 11.6 µM [falling, partial curve, poor fit]
11 | COc1ccc(NC(=S)N2CCC(Cc3ccccc3)CC2)cc1OC | inconclusive: 25.9 µM [falling, single point]
12 | CC(=O)N1N=C2c3ccccc3CCC2C1c1ccc(F)cc1 (centres undefined) | inactive
13 | COc1cc(Br)c(CN2C(=O)NC3(CCCCCC3)C2=O)cc1OC | inconclusive: 14.6 µM [falling, single point]
14 | CCCc1cc(=O)[nH]c(SCC(=O)Nc2cccc3ccccc23)n1 | inconclusive: 16.4 µM [falling, single point]
15 | CCc1cc2c(SCc3ccc(C(=O)OC)o3)ncnc2s1 | inactive
16 | Cc1nc(NC(=O)CSc2nnc(C3CC3)n2C)sc1C | inconclusive: 6.51 µM [activator, partial curve]
17 | O=C(NCCCn1ccnc1)Nc1ccc2c(c1)OCO2 | inconclusive: 29.1 µM [activator, single point]
18 | COc1ccc(NC(=O)CN2C(=O)NC3(CCCCCC3)C2=O)cc1Cl | inconclusive: 2.06 µM [falling, partial curve, poor fit]
19 | CCNC(=O)c1c(NC(=O)Cc2coc3cc(C)ccc23)sc2c1CCCC2 | inactive

An excerpt of these results, with tabs.
Row	Compound	Potency
9	COc1ccc(/C(C)=N/Nc2nc3ccccc3nc2C)cc1	inconclusive: 29.1 µM [activator, single point]
10	CC(Oc1ccc(Cl)cc1Cl)C(=O)Nc1ccncc1 (centres undefined)	inconclusive: 11.6 µM [falling, partial curve, poor fit]
11	COc1ccc(NC(=S)N2CCC(Cc3ccccc3)CC2)cc1OC	inconclusive: 25.9 µM [falling, single point]
12	CC(=O)N1N=C2c3ccccc3CCC2C1c1ccc(F)cc1 (centres undefined)	inactive
13	COc1cc(Br)c(CN2C(=O)NC3(CCCCCC3)C2=O)cc1OC	inconclusive: 14.6 µM [falling, single point]

Source: PubChem BioAssay AID504444 (National Center for Advancing Translational Sciences (NCATS), 2011)
